Record: PubChem BioAssay AID1159578 (Peter MacCallum Cancer Centre, 2015)

- Screen: 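siRNA pools altering how lymphatic endothelial cells close a scratch wound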 (primary screen)
- System: human lymphatic endothelial cells
- Knock-down reagent: siRNA pool against human genes, 40 nM
- Timing: 48 h after transfection
- Read-out: 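High-content imaging of dye-stained cells in a scratch assay measures filled wound area and nuclei per well; duplicate means given as ratio to mock and robust z-score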
- Reading the numbers: migration robust z-score: higher = faster migration into the scratch; nuclei per well: higher = more cells in the well
- Rule for the call: 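Migration changed when robust z exceeds 2 or falls below -2 and mean nuclei number is at least 3300; otherwise not called changed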
- Meaning of the calls: active = migration changed; inactive = no migration change, or too few cells
The deposit covers about 18,000 reagents; below is an unselected part. About 1,030 of all reagents (5.7%) count as active. 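Inactive calls also include pools with fewer than 3300 nuclei, whose migration was not assessed.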 The raw values are shown without normalisation. Unmarked entries are inactive. Further read-outs or replicates are left out here.

Target gene,migration robust z-score,"nuclei per well, duplicate mean"
ZNF224 (zinc finger protein 224),-0.03,5820
NOP56 (NOP56 ribonucleoprotein),0.1,6158
ACADS (acyl-CoA dehydrogenase short chain),0.28,4898
"RAVER2 (ribonucleoprotein, PTB binding 2)",1.88,5844
DNAAF2 (dynein axonemal assembly factor 2),-0.82,5872
KRT81 (keratin 81),-5,1490
FAM156A (family with sequence similarity 156 member A),-1.55,4279
PKD1L3,-0.73,4930
ZNF512B (zinc finger protein 512B),-0.51,6791
RGPD5 (RANBP2 like and GRIP domain containing 5),-1.04,5878
FAM209A (family with sequence similarity 209 member A),0.2,5486
DUSP14 (dual specificity phosphatase 14),0.34,5915
GRIP2 (glutamate receptor interacting protein 2),-1.89,4288
POLR1C (RNA polymerase I and III subunit C),1.64,6476
GAREM1 (GRB2 associated regulator of MAPK1 subtype 1),2.85 (active),5954
ZNF285 (zinc finger protein 285),1.31,5280
CENPP (centromere protein P),-3.19,2550
"GTF2H2C_2 (GTF2H2 family member C, copy 2)",1.08,5934
PCSK7 (proprotein convertase subtilisin/kexin type 7),1.06,5147
MIR99AHG (mir-99a-let-7c cluster host gene),2.26 (active),4649
PPP1R15B (protein phosphatase 1 regulatory subunit 15B),0.6,4456
PYROXD2 (pyridine nucleotide-disulphide oxidoreductase domain 2),1.23,6406
NOSTRIN (nitric oxide synthase trafficking),-1.52,5932
SPATA22 (spermatogenesis associated 22),-1.74,6170
ROBO2 (roundabout guidance receptor 2),-1.93,6052
ATG4C (autophagy related 4C cysteine peptidase),1.92,5604
RASL11B (RAS like family 11 member B),0.11,7245
C14orf184 (retired record),-1.74,6094
VPS54 (VPS54 subunit of GARP complex),-0.68,5496
PGAM1 (phosphoglycerate mutase 1),-1.94,4908
CYFIP2 (cytoplasmic FMR1 interacting protein 2),-1.77,5011
CCL22 (C-C motif chemokine ligand 22),0.58,6346
BPIFB1 (BPI fold containing family B member 1),1.13,5799
ZBTB21 (zinc finger and BTB domain containing 21),1.72,6310
PCDHB9 (protocadherin beta 9),-0.46,5791
"RAB2B (RAB2B, member RAS oncogene family)",0.83,5925
COL5A1 (collagen type V alpha 1 chain),0.87,5364
PGBD5 (piggyBac transposable element derived 5),-2.39 (active),4100
CCDC68 (coiled-coil domain containing 68),1.49,5465
DDX49 (DEAD-box helicase 49),-1.12,5158
NPEPPS (aminopeptidase puromycin sensitive),-0.52,5574
TCERG1L (transcription elongation regulator 1 like),0.78,5720
GTF2F1 (general transcription factor IIF subunit 1),1.19,5617
JARID2 (jumonji and AT-rich interaction domain containing 2),-0.18,6237
LDLRAD2 (low density lipoprotein receptor class A domain containing 2),0.55,4296
ZNF417 (zinc finger protein 417),-1.88,6272
PABPC1 (poly(A) binding protein cytoplasmic 1),1.4,5714
CHRNA5 (cholinergic receptor nicotinic alpha 5 subunit),-0.55,4996
UBE2D3 (ubiquitin conjugating enzyme E2 D3),0.57,6226
RPS29 (ribosomal protein S29),-4.4,2115
CTBS (chitobiase),0.08,5562
SMAD6 (SMAD family member 6),-0.57,7578
ERGIC2 (ERGIC and golgi 2),2.32 (active),5747
SGTA,-2.44,3294
MGAT4D (MGAT4 family member D),-0.12,6508
CDKN1B (cyclin dependent kinase inhibitor 1B),-0.02,5720
TRIP4 (thyroid hormone receptor interactor 4),-0.18,5914

No new results follow: entries from further up.
Target gene,migration robust z-score,"nuclei per well, duplicate mean"
NOSTRIN (nitric oxide synthase trafficking),-1.52,5932
SPATA22 (spermatogenesis associated 22),-1.74,6170
ROBO2 (roundabout guidance receptor 2),-1.93,6052
ATG4C (autophagy related 4C cysteine peptidase),1.92,5604
